This continues a long series; more values of the same kind are listed elsewhere.
System: mRNA expression in peripheral blood of individuals with DMD
Test: Whole-blood gene expression microarray: DMD administered deflazacort vs DMD administered prednisone
Format: in vivo, human
Protocol: Fifteen ml of blood was collected from each individual into 6 PAXgene® Vacutainer® tubes (PreAnalytiX, Germany) by antecubital fossa venipuncture. PAXgene® tubes contain a proprietary reagent that immediately stabilizes RNA, thus reducing RNA degradation and minimizing gene expression changes following phlebotomy. The tubes were then inverted 20 times, then remained undisturbed for 2 h at room temperature (about 19° C. to about 22° C.), and then stored at -70° C. until processed. Total RNA was isolated using the Paxgene® blood RNA kit (PreAnalytiX, Germany) according to the manufacturers instructions. The RNA isolated is from all cells in whole blood. Typical yields of total RNA isolated from about 7.5 ml of human whole blood were between 10 μg RNA and 40 μg RNA. RNA quality and purity was analyzed by spectrophotometry using the Nanodrop ND-1000, and RNA integrity was analyzed using the Agilent 2100 Bioanalyzer. […] Sample labeling, hybridization to chips, and image scanning were performed using standard Affymetrix protocols. For each whole blood sample from control individuals and individuals with DMD, total RNA was labeled using the One-Cycle Target Labeling protocol and hybridized to the arrays. […] Double-stranded cDNA synthesis, biotin-labeled cRNA synthesis, and cRNA fragmentation were performed according to the Affymetrix GeneChip Eukaryotic Expression Analysis protocol. The labeled, fragmented cRNA (15 μg) was hybridized at 45° C. overnight. After hybridization, the array was washed and stained. The arrays were scanned with an argon-ion laser at λ=570 nm, with a resolution of 3 μm/pixel (Affymetrix, Inc.). After scanning the array, the raw probe level values for each probe were saved in Affymetrix.cel files. […] Statistical analyses, including t-test analyses, unsupervised hierarchical clustering, and principal component analyses were conducted using Genespring 7.2 software ([…]® 7, Silicon Genetics, Redwood City Calif.). […] Corrections for multiple comparisons used a Benjamini-Hochberg False Discovery Rate (FDR) of 0.05, disclosed in Tang et al., J Cereb Blood Flow Metab 26 (2006) 1089, which is expressly incorporated by reference herein in its entirety. […] Sample processing and array hybridization, probe-level data analysis, and statistical analysis were identical to Example 1.

SMILES: CC(=O)OCC(=O)[C@@]12N=C(C)O[C@@H]1C[C@H]1[C@@H]3CCC4=CC(=O)C=C[C@]4(C)[C@H]3[C@@H](O)C[C@@]12C [deflazacort]
- p-value (SLIC1, AI081246, nucleic acid 2215, vs. prednisone): 0.0159
- p-value (SMARCA4, D26156, nucleic acid 2216, vs. prednisone): 0.0291
- p-value (SMC5L1, BC035661, nucleic acid 2217, vs. prednisone): 0.0179
- p-value (SND1, AI374686, nucleic acid 2218, vs. prednisone): 0.0162
- p-value (SNX1, AK098001, nucleic acid 2219, vs. prednisone): 0.0426
- p-value (SOD2, W46388, nucleic acid 2220, vs. prednisone): 0.0239
- p-value (SP2, D28588, nucleic acid 2222, vs. prednisone): 0.0386
- p-value (SP3, N23846, nucleic acid 2223, vs. prednisone): 0.0499
- p-value (SP110, AF280094, nucleic acid 2221, vs. prednisone): 0.0401
- p-value (SPAG9, BC007524, nucleic acid 2224, vs. prednisone): 0.0493
- p-value (ST8SIA4, AA352113, nucleic acid 1171, vs. prednisone): 0.0441
- p-value (STAT3, AA634272, nucleic acid 2226, vs. prednisone): 0.0328
- p-value (STAT3, AI139252, nucleic acid 2227, vs. prednisone): 0.0405
- p-value (STAT3, BC000627, nucleic acid 2225, vs. prednisone): 0.025
- p-value (STEAP4, AA650281, nucleic acid 2228, vs. prednisone): 0.0195
- p-value (SULT1A1, NM_001055, nucleic acid 2229, vs. prednisone): 0.0233
- p-value (SULT1A3, SULT1A4, U08032, nucleic acid 2230, vs. prednisone): 0.0234
- p-value (SVIL, BC022883, nucleic acid 2231, vs. prednisone): 0.0273
- p-value (SYK, AW467357, nucleic acid 2232, vs. prednisone): 0.0336
- p-value (Similar to hypothetical protein FLJ36144, Genbank AI090764, Nucleic Acid No. 2280): 0.00719
- p-value (Similar to transcript increased in spermiogenesis 78, Genbank AK026679, Nucleic Acid No. 2331): 0.044
- p-value (TAL1, AW300901, nucleic acid 2322, vs. prednisone): 0.0248
- p-value (TAX1BP3, AF234997, nucleic acid 2233, vs. prednisone): 0.027
- p-value (TBC1D22A, AI597838, nucleic acid 2234, vs. prednisone): 0.0353
- p-value (TGFB1, BC000125, nucleic acid 2235, vs. prednisone): 0.0114
- p-value (TGFBR3, NM_003243, nucleic acid 2236, vs. prednisone): 0.0469
- p-value (TGOLN2, NM_006464, nucleic acid 1425, vs. prednisone): 0.00127
- p-value (THRAP2, AK025348, nucleic acid 2237, vs. prednisone): 0.04
- p-value (TIAF1, MYO18A, NM_004740, nucleic acid 2238, vs. prednisone): 0.0229
- p-value (TJP2, NM_004817, nucleic acid 675, vs. prednisone): 0.0455
- p-value (TLE3, AI567426, nucleic acid 2239, vs. prednisone): 0.0127
- p-value (TLE3, NM_005078, nucleic acid 2240, vs. prednisone): 0.0216
- p-value (TLR1, AL050262, nucleic acid 2241, vs. prednisone): 0.0328
- p-value (TMCC1, AB018322, nucleic acid 1003, vs. prednisone): 0.0328
- p-value (TMCC1, AI934469, nucleic acid 2242, vs. prednisone): 0.0345
- p-value (TMEM16F, AL041280, nucleic acid 2243, vs. prednisone): 0.0268
- p-value (TMPRSS6, AL022314, nucleic acid 2323, vs. prednisone): 0.0304
- p-value (TNFSF10, NM_003810, nucleic acid 2244, vs. prednisone): 0.0148
- p-value (TNFSF10, U57059, nucleic acid 2245, vs. prednisone): 0.0367
- p-value (TNFSF13, TNFSF12-TNFSF13, AF114011, nucleic acid 2247, vs. prednisone): 0.0208
- p-value (TNFSF13, TNFSF12-TNFSF13, AF114013, nucleic acid 2246, vs. prednisone): 0.012
- p-value (TNFSF13B, AF134715, nucleic acid 2248, vs. prednisone): 0.0196
- p-value (TNRC5, AF161347, nucleic acid 2249, vs. prednisone): 0.00226
- p-value (TPARL, AW665624, nucleic acid 939, vs. prednisone): 0.0263
- p-value (TPP1, BG231932, nucleic acid 2250, vs. prednisone): 0.00621
- p-value (TPP1, NM_000391, nucleic acid 920, vs. prednisone): 0.000155
- p-value (TRIM8, NM_030912, nucleic acid 2252, vs. prednisone): 0.00322
- p-value (TRIM38, AI809831, nucleic acid 2251, vs. prednisone): 0.018
- p-value (Transcribed locus, Genbank AI718964, Nucleic Acid No. 2292): 0.0211
- p-value (Transcribed locus, Genbank AI916948, Nucleic Acid No. 1660): 0.0303
- p-value (Transcribed locus, Genbank AW293956, Nucleic Acid No. 2300): 0.0326
- p-value (Transcribed locus, Genbank AW451107, Nucleic Acid No. 2283): 0.0133
- p-value (Transcribed locus, Genbank AW954199, Nucleic Acid No. 2333): 0.0452
- p-value (Transcribed locus, Genbank BF514098, Nucleic Acid No. 2330): 0.0439
- p-value (Transcribed locus, Genbank H94876, Nucleic Acid No. 2329): 0.0435
- p-value (Transcribed locus, weakly similar to NP_060312.1, Genbank AA838727, Nucleic Acid No. 2282): 0.0115
- p-value (U20489, nucleic acid 2281, vs. prednisone): 0.0108
- p-value (UBE2D3, AI239832, nucleic acid 2253, vs. prednisone): 0.0322
- p-value (UBE2J1, N64079, nucleic acid 2254, vs. prednisone): 0.0247
- p-value (UBE3B, AK022019, nucleic acid 2255, vs. prednisone): 0.0134
- p-value (USP15, AU156202, nucleic acid 2256, vs. prednisone): 0.0357
- p-value (VCL, NM_014000, nucleic acid 2257, vs. prednisone): 0.000443
- p-value (VPS37C, BM452172, nucleic acid 2258, vs. prednisone): 0.00954
- p-value (VPS41, AF135593, nucleic acid 342, vs. prednisone): 0.0126
- p-value (WARS, NM_004184, nucleic acid 2259, vs. prednisone): 0.0139
- p-value (WASL, AK025323, nucleic acid 2260, vs. prednisone): 0.0268
- p-value (WDR40A, AL555107, nucleic acid 2324, vs. prednisone): 0.0469
- p-value (WIRE, AK026913, nucleic acid 2261, vs. prednisone): 0.00508
- p-value (WNK1, AL049278, nucleic acid 2262, vs. prednisone): 0.0169
- p-value (XPO1, BC041658, nucleic acid 2263, vs. prednisone): 0.0377
- p-value (YOD1, AF090896, nucleic acid 2325, vs. prednisone): 0.0189
- p-value (YWHAH, NM_003405, nucleic acid 1807, vs. prednisone): 0.018
- p-value (ZAK, AW069181, nucleic acid 2264, vs. prednisone): 0.00126
- p-value (ZCCHC2, AU147903, nucleic acid 2266, vs. prednisone): 0.0424
- p-value (ZCCHC2, BE676543, nucleic acid 2265, vs. prednisone): 0.0109
- p-value (ZCCHC2, NM_017742, nucleic acid 677, vs. prednisone): 0.022
- p-value (ZCCHC6, AA584428, nucleic acid 2267, vs. prednisone): 0.0477
- p-value (ZFHX1B, AF086037, nucleic acid 2268, vs. prednisone): 0.0124
- p-value (ZFHX1B, AI623184, nucleic acid 2269, vs. prednisone): 0.0233
- p-value (ZFP36L1, BE620915, nucleic acid 2270, vs. prednisone): 0.0409
- p-value (ZNF160, AA701249, nucleic acid 1369, vs. prednisone): 0.028
- p-value (ZNF264, NM_003417, nucleic acid 2271, vs. prednisone): 0.00262
- p-value (ZNF595, AI580142, nucleic acid 2326, vs. prednisone): 0.00776
- p-value (ZNF626, NM_145297, nucleic acid 2327, vs. prednisone): 0.0179
- p-value (ZNF652, NM_014897, nucleic acid 2272, vs. prednisone): 0.0417
- p-value (ZYG11B, AV701229, nucleic acid 2273, vs. prednisone): 0.00211
- p-value (ZYG11B, N21008, nucleic acid 2274, vs. prednisone): 0.0262
- p-value (ZYX, BC002323, nucleic acid 2275, vs. prednisone): 0.0212
- p-value (gene BGR, Genbank AW341515, Nucleic Acid No. 2310): 0.00516
- p-value (gene C1orf128, Genbank AF271784, Nucleic Acid No. 2311): 0.031
- p-value (gene CDC27, Genbank AA166684, Nucleic Acid No. 2312): 0.0359
- p-value (gene FGFR1OP2, Genbank W74643, Nucleic Acid No. 1750): 0.0301
- p-value (gene FLJ37562, Genbank BF436799, Nucleic Acid No. 2313): 0.0328

Source: US20110217715A1, “GENE EXPRESSION IN DUCHENNE MUSCULAR DYSTROPHY” (CHILDREN'S HOSPITAL MEDICAL CENTER, priority 2008, published 2011)
